The record followed here is publication PMC3734182.

By UniProt entry, the sequences of proteins in these tests, tags left out. Residues count along the entry.
UniProt P15208, residues 28-1372: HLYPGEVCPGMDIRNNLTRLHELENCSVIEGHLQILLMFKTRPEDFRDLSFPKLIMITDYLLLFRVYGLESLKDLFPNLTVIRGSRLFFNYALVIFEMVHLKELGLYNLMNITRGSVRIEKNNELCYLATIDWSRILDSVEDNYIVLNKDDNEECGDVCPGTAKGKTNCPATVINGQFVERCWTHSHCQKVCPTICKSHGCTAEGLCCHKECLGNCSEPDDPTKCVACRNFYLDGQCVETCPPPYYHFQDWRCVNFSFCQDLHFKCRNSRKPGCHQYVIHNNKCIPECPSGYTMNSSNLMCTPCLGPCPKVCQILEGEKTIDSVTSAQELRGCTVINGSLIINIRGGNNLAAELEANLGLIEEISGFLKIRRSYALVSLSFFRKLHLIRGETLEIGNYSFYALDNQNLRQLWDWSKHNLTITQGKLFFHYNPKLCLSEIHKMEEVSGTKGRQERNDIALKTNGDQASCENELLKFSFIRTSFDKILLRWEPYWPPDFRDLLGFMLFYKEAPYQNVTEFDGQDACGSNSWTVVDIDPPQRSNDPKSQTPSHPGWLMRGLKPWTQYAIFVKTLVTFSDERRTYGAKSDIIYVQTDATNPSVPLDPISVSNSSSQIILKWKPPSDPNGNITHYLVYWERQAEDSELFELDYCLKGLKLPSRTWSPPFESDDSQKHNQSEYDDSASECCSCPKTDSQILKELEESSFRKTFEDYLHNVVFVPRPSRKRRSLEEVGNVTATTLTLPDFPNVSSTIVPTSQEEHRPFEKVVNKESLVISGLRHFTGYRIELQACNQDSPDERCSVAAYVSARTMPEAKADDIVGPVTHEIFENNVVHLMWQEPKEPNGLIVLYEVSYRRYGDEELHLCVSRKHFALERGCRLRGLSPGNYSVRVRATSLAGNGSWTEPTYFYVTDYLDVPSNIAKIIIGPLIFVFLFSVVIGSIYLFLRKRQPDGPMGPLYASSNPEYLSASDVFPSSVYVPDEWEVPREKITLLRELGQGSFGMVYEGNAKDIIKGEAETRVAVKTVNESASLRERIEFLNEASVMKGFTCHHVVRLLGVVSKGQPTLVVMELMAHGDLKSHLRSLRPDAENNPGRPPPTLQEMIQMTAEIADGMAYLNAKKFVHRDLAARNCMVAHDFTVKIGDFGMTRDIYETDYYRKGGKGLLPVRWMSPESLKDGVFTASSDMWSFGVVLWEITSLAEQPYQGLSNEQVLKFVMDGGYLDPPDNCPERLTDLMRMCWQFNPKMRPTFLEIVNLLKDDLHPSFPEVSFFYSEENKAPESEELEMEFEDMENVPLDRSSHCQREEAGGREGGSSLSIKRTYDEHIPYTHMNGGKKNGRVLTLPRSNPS

Results are given in words; binding and its absence hold for the method and conditions named. Binding seen in cells or lysates may run through a third protein. Some binding calls cover weakened binding; strength is not graded here.

The target in this test is insulin receptor (mouse (endogenous in C57BL/6J liver)) (UniProt P15208). Description: proximity ligation; in situ PLA (Duolink) on paraffin-embedded 5 um liver sections of C57BL/6J mice, untreated or stimulated with insulin (10 U/kg body weight, 2 min); rabbit anti-insulin receptor plus goat anti-DEP-1 antibodies; resolution ~40-50 nm.

B1: density-enhanced phosphatase-1 (DEP-1) (enzyme, UniProt Q64455 29-1238)
chain: RQGQVLCAGAAPNPIFDIEAVVSPTSVLLTWKHNDSGASECRIENKMESNLTFPVKNQTSCNITGLSPGTSYTFSIISVTTNETLNKTITTEPWPVSDLHVTSVGVTQARLTWSNANGTASYRMLIEELTTHSSVNISGLKPGTNNSFAFPESNETQADFAVAEEVPDANGTKRIPVTNLSQLHKNSLVSVDPPSGQDPSLTEILLTDLKPDTQYNATIYSQAANGTEGQPRNKVFKTNSTQVSDVRAMNISASSMTLTWKSNYDGSRTSIVYKIHVAGGTHSVNQTVNKTEAIILGLSSSTLYNITVHPFLGQTEGTPGFLQVYTSPDQVSDFRVTNVSTRAIGLAWRSNDSKSFEIFIKQDGGEKHRNASTGNQSYMVEDLKPGTSYHFEIIPRGPDGTEGLSSTVNGSTDPSAVTDIRVVNISTTEMQLEWQNTDDASGYTYHLVLESKSGSIIRTNSSQKWITVGSLTPGTLYNVTIFPEVDQIQGISNSITQYTRPSSVSHIEVNTTTTTAAIRWKNEDAASASYAYSVLILKTGDGSNVTSNFTKDPSILIPELIPGVSYTVKILTQVGDGTTSLVPGWNLFCTEPEPVTSFHCEVVPKEPALVLKWACPFGMYTGFELGVRSDSWDNMTRLENCTSDDDTECRTEVAYLNFSTSYNISIATLSCGKMALPAQNICTTGITDPPTPDGSPNITSVSHNSVKVKFSGFEASHGPIKAYAVILTTGEAAQPSADVLKYTYEDFKRGASDTYVTYLIRIEEKGQSQGLSEVLNYEIDVGNQSTTLGYYNGRLEPLGSYRACVAGFTNITYNLQNDGLINGDESYVSFSPYSEAVFLPQDPGVICGAVFGCIFGALAITAVGGFIFWRKKRTDAKNNEVSFSQIKPKKSKLIRVENFEAYFKKQQADSNCGFAEEYEDLKLIGISLPKYTAEIAENRGKNRYNNVLPYDISRVKLSVQTHSTDDYINANYMPGYHSKKDFIATQGPLPNTLKDFWRMVWEKNVYAIVMLTKCVEQGRTKCEEYWPSKQAQDYGDITVAMTSEVVLPEWTIRDFVVKNMQNSESHPLRQFHFTSWPDHGVPDTTDLLINFRYLVRDYMKQIPPESPILVHCSAGVGRTGTFIAIDRLIYQIENENTVDVYGIVYDLRMHRPLMVQTEDQYVFLNQCVLDIIRAQKDSKVDLIYQNTTAMTIYENLEPVSMFGKTNGYIA
For the molecule B1, the binding result is recorded as “binds”.
